Binding data for one molecule are collected here from patent US20110207656A1.

Sequences of proteins named here, by UniProt entry; tags and fusion partners are left off. A change or cut given only in a name is not applied to a line headed by its entry.
UniProt Q14790: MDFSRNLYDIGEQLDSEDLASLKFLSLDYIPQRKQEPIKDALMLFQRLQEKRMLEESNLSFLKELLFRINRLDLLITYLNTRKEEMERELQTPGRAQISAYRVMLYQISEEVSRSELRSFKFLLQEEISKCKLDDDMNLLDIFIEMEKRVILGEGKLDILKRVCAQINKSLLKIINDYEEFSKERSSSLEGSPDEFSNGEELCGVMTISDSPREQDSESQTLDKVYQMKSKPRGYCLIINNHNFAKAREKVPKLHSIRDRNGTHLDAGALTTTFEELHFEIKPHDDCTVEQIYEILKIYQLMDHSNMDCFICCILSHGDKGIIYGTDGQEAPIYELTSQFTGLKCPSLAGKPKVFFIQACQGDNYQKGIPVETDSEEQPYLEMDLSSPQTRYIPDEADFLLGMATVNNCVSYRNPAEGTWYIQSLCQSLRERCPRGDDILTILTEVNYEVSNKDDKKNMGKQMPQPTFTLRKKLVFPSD

This assay addresses His-caspase-8(184-384) (human) (UniProt Q14790). The assay is described as follows: competition GST pull-down: peptide in increasing amounts against GST-MUC1-CD(1-20) for His-caspase-8-p18 (FIG. 9D, lower).

Results are given in words; binding and its absence hold for the method and conditions named. Binding seen in cells or lysates may run through a third protein. Some results given as binding are weak or reduced against the parent protein; the word gives no strength.

On to CQCRRKNYGQLDIFPARDTY [synthetic MUC1-CD(1-20) peptide], for which the binding entry is on record as “binds”.
